This assay has as its target recombinant human CD16a-His protein (Acro Biosystems; catalog #: CDA-H52S1) (human) (UniProt P08637). Put plainly: ELISA, CD16a coated, sdAb-mIgG1 Fc. On the technique in general: In an ELISA, binding on a coated surface is turned into a signal by an enzyme label.

Protein sequences, listed by entry. Tags and fused reporters are not part of them. Residues count along the entry.
UniProt P08637, residues 17-208: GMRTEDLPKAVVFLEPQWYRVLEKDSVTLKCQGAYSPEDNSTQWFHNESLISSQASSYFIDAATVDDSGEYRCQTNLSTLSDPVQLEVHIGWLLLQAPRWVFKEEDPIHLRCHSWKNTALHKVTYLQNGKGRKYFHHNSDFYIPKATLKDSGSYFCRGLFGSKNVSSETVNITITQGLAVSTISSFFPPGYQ

No constants are given. Whether binding was seen depends on the method and setting. Some binding calls cover weakened binding; strength is not graded here. Tags and fused reporters may be left off the sequences shown.

B1: AR8776 sdAb fusion protein with mIgG1 Fc (Fc fusion)
chain: AVQLVESGGGLVQPGGSLRLSCAASGFTFSNYAMSWVRQAPGKGLEWVSSINRGGSITNYADSVKGRFAISRDNAKNTIYLQMNNLRPEDTAQYSCARGDSTYSRLSAAYRGQGTQVTVSSVPRDCGCKPCICTVPEVSSVFIFPPKPKDVLTITLTPKVTCVVVDISKDDPEVQFSWFVDDVEVHTAQTQPREEQFNSTFRSVSELPIMHQDWLNGKEFKCRVNSAAFPAPIEKTISKTKGRPKAPQVYTIPPPKEQMAKDKVSLTCMITDFFPEDITVEWQWNGQPAENYKNTQPIMDTDGSYFVYSKLNVQKSNWEAGNTFTCSVLHEGLHNHHTEKSLSHSPGK
Turning to B1, the binding result is given as “binds”.

B2: AR8875 sdAb fusion protein with mIgG1 Fc (Fc fusion)
chain: QVQLVESGGGLVQPGGSLRLSCAASGFTFSNYAMTWVRQAPGKGLEWVSSIDRGGSITSYADSVKGRFAISRDNAKNTMYLQMNNLRPEDTARYVCARGDSTYSRLTAAYRGQGTQVTVSSVPRDCGCKPCICTVPEVSSVFIFPPKPKDVLTITLTPKVTCVVVDISKDDPEVQFSWFVDDVEVHTAQTQPREEQFNSTFRSVSELPIMHQDWLNGKEFKCRVNSAAFPAPIEKTISKTKGRPKAPQVYTIPPPKEQMAKDKVSLTCMITDFFPEDITVEWQWNGQPAENYKNTQPIMDTDGSYFVYSKLNVQKSNWEAGNTFTCSVLHEGLHNHHTEKSLSHSPGK
Take B2: the binding entry is “binds”.

B3: AR8887 sdAb fusion protein with mIgG1 Fc (Fc fusion)
chain: QVQLVESGGGLVQAGGSLRLSCAVSGFLYYSIGWFRQAPGKEREWVSCISRSGAGTSYANSVKGRSTISRDNDKNTVYLQMNSLKSEDTAVYYCARRATSSCTATMTRGQYDYWGQGTQVTVSSVPRDCGCKPCICTVPEVSSVFIFPPKPKDVLTITLTPKVTCVVVDISKDDPEVQFSWFVDDVEVHTAQTQPREEQFNSTFRSVSELPIMHQDWLNGKEFKCRVNSAAFPAPIEKTISKTKGRPKAPQVYTIPPPKEQMAKDKVSLTCMITDFFPEDITVEWQWNGQPAENYKNTQPIMDTDGSYFVYSKLNVQKSNWEAGNTFTCSVLHEGLHNHHTEKSLSHSPGK
On to B3, for which the binding result was “binds”.

B4: AR8866 sdAb fusion protein with mIgG1 Fc (Fc fusion)
chain: QVKLEESGGGLVQPGGSLRLSCVASGFTFSVWTMSWVRQAPGKGLEWVSDISHSGIYTTYADSVKGRFTISRDNAKNTLWLQLNALKPEDTAVYYCAQGNRRNSMLSGTLRGQGTQVTVSSVPRDCGCKPCICTVPEVSSVFIFPPKPKDVLTITLTPKVTCVVVDISKDDPEVQFSWFVDDVEVHTAQTQPREEQFNSTFRSVSELPIMHQDWLNGKEFKCRVNSAAFPAPIEKTISKTKGRPKAPQVYTIPPPKEQMAKDKVSLTCMITDFFPEDITVEWQWNGQPAENYKNTQPIMDTDGSYFVYSKLNVQKSNWEAGNTFTCSVLHEGLHNHHTEKSLSHSPGK
As to B4, the binding result is listed as “binds”.

B5: AR8861 sdAb fusion protein with mIgG1 Fc (Fc fusion)
chain: AVQLVDSGGGLVQPGGSLRLSCVASGFTFSIWTMSWVRQAPGKGLEWVSDISHSGLYTTYADSVKGRFTISRDNAKNTLWLQLNALKPEDTAVYYCAQGNRRTSMLSGTLRGQGTQVTVSSVPRDCGCKPCICTVPEVSSVFIFPPKPKDVLTITLTPKVTCVVVDISKDDPEVQFSWFVDDVEVHTAQTQPREEQFNSTFRSVSELPIMHQDWLNGKEFKCRVNSAAFPAPIEKTISKTKGRPKAPQVYTIPPPKEQMAKDKVSLTCMITDFFPEDITVEWQWNGQPAENYKNTQPIMDTDGSYFVYSKLNVQKSNWEAGNTFTCSVLHEGLHNHHTEKSLSHSPGK
Turning to B5, the binding result is on record as “binds”.

B6: AR8804 sdAb fusion protein with mIgG1 Fc (Fc fusion)
chain: AVQLVDSGGGLVQAGGSLRLSCAASGSSVSRYAMAWYRQAPGKERELVAVVRITGIPIYADFVKGRFTISRDNAKNTVLLQMNSLEPEDTAIYYCNTGNFNTYTRRYSPSETWGQGTQVTVSSVPRDCGCKPCICTVPEVSSVFIFPPKPKDVLTITLTPKVTCVVVDISKDDPEVQFSWFVDDVEVHTAQTQPREEQFNSTFRSVSELPIMHQDWLNGKEFKCRVNSAAFPAPIEKTISKTKGRPKAPQVYTIPPPKEQMAKDKVSLTCMITDFFPEDITVEWQWNGQPAENYKNTQPIMDTDGSYFVYSKLNVQKSNWEAGNTFTCSVLHEGLHNHHTEKSLSHSPGK
In the case of B6, the binding entry was “binds”.

B7: AR8820 sdAb fusion protein with mIgG1 Fc (Fc fusion)
chain: QVKLEESGGGLVQAGGSLRLSCAASGSSISRYAMAWYRQGPGKERELVAVVRITGSPIYADFVGGRFTISRDNAKSTVLLQMNSLKPEDTAIYYCNTGNFNTYTRRYSPSETWGQGTQVTVSSVPRDCGCKPCICTVPEVSSVFIFPPKPKDVLTITLTPKVTCVVVDISKDDPEVQFSWFVDDVEVHTAQTQPREEQFNSTFRSVSELPIMHQDWLNGKEFKCRVNSAAFPAPIEKTISKTKGRPKAPQVYTIPPPKEQMAKDKVSLTCMITDFFPEDITVEWQWNGQPAENYKNTQPIMDTDGSYFVYSKLNVQKSNWEAGNTFTCSVLHEGLHNHHTEKSLSHSPGK
B7: the binding entry is “binds”.

Source of the values: patent US20240352128A1.
